Experimental data taken from publication PMC10605901, “Clinical Cases and the Molecular Profiling of a Novel Childhood Encephalopathy-Causing GNAO1 Mutation P170R” (Cells, 2023).
Results are given in words; binding and its absence hold for the method and conditions named. Binding seen in cells or lysates may run through a third protein. Some entries that bind do so weakly or less than the wild type.

Protein sequences, listed by entry. Tags and fused reporters are not part of them. Lines headed by an entry give the natural chain unless they say otherwise; changes in a name come on top.
UniProt P09471: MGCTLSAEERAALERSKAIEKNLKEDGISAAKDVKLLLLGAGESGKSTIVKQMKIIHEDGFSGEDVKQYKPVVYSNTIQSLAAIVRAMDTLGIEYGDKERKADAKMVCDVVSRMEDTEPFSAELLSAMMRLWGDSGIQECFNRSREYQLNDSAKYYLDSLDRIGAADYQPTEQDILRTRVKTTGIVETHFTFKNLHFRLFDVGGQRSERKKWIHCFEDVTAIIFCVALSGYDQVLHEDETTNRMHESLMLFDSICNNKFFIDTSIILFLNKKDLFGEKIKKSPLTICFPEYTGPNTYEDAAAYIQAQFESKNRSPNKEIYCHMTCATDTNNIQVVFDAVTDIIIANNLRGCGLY

Columns and labels:
[1] = target: Gαo^Gly92-GFP wild-type (Gαo internally tagged with GFP at Gly92) (human) (UniProt P09471); test: co-IP; N2a cells co-transfected with Gαo-GFP constructs and mRFP-Gβ1/mRFP-Gγ3 (1:1:1) or HA-RGS19 (1:1); cleared lysates (20 mM Tris-HCl pH 8.0, 1% Triton X-100, 10% glycerol in PBS) incubated with GST-tagged anti-GFP nanobody, then Glutathione Sepharose 4B beads overnight at 4 °C; Western blot for GFP, mRFP and/or HA; quantification normalized to the precipitated Gαo-GFP
[2] = target: Gαo[Q205L]^Gly92-GFP (human) (UniProt P09471); test: as above

B1: 3xHA-RGS19 (natural protein, UniProt P49795 1-217, looked up)
chain: MPTPHEAEKQITGPEEADRPPSMSSHDTASPAAPSRNPCCLCWCCCCSCSWNQERRRAWQASRESKLQPLPSCEVCATPSPEEVQSWAQSFDKLMHSPAGRSVFRAFLRTEYSEENMLFWLACEELKAEANQHVVDEKARLIYEDYVSILSPKEVSLDSRVREGINKKMQEPSAHTFDDAQLQIYTLMHRDSYPRFLSSPTYRALLLQGPSQSSSEA
notes: RGS19 (regulator of G-protein signaling 19); also called 3×HA-RGS19; RGS19 (tagged with 3 × HA); source: N2a cells, transfected, in lysate
- binding [1]: binds
- binding [2]: binds
